In PubChem BioAssay AID720504 (National Center for Advancing Translational Sciences (NCATS), 2013):
Values joined by “and” are separate entries in the source; they are usually repeats but may differ in a detail not shown here. Equal entries are not always repeated. The whole screen tested about 360,000 compounds, of which about 10,000 (2.8%) were called active. The inconclusive results got no clear call from the source; some entries with a clear call stand among them for comparison. Calls come from the whole dose curve; as a rule, active = well fitted inhibition curve with a large enough effect; inconclusive = small, poorly fitted or top-dose-only effect; inactive = flat fitted curve, though single readings scatter. Where the call is inconclusive, the potency comes from a doubtful curve fit.

Sequences of proteins named here, by UniProt entry; tags and fusion partners are left off.
UniProt P53350, whole entry, looked up: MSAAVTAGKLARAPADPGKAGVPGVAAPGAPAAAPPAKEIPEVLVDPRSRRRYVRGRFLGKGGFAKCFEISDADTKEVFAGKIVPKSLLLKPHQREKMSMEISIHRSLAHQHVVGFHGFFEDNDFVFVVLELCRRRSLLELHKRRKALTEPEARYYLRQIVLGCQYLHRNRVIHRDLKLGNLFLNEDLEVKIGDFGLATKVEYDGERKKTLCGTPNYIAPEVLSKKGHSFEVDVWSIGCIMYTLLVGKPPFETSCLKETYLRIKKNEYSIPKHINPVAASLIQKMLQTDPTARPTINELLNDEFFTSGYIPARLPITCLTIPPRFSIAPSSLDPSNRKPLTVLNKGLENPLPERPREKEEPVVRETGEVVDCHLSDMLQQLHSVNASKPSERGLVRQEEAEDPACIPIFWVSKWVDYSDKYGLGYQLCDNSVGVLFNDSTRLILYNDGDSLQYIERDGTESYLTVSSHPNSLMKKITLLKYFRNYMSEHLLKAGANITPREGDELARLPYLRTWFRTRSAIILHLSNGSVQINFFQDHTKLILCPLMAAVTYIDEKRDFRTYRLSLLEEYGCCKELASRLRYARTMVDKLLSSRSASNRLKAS

target: Serine/threonine-protein kinase PLK1 (Homo sapiens) (UniProt P53350); assay: qHTS for Inhibitors of PLK1-PDB (polo-like kinase 1 - polo-box domain): Primary Screen; conditions: Plk1 PBD binding of FITC phosphopeptide, fluorescence polarization; note: nearly all actives have a fitted effect of over 65% in size; for max response, negative = inhibition: series mostly up to about 57 µM
% is set by controls: 0 for no effect and ±100 for the full control effect; potency is the fitted concentration of half-maximal effect.

Compound	Potency	max response, negative = inhibition
O=C(CN1CCOCC1)N1CCCc2ccccc21	inconclusive: 23.8 µM [inhibitor, single point]	–
CCOc1cc(/C=C2\C(=O)NN(c3ccccc3)C2=O)cc([N+](=O)[O-])c1O	active: 16.8 µM	–
CCNC(=S)Nc1scc(-c2ccccc2)c1C(=O)OCC	–	inactive: -17.8%
O=C(O)Cc1sc(-c2ccc(Cl)cc2)nc1-c1ccccc1	active: 23.8 µM	–
CC1CCCCC1NS(=O)(=O)c1ccc(-n2cnnn2)cc1 (stereo not drawn)	inconclusive: 29.9 µM [inhibitor, single point]	–
CC1CCN(CC(O)COc2ccc(OCC(O)CN3CCC(C)CC3)cc2)CC1 (stereo not drawn)	–	inactive: 0.679%
Nc1nonc1C(=O)NCCN=Cc1cc(Cc2ccccc2)cc(Br)c1O	inconclusive: 18.9 µM [inhibitor, partial curve]	–
CCCC(=O)NC(c1ccc(OC)cc1)c1c(O)ccc2ccccc12 (stereo not drawn)	inconclusive: 29.9 µM [inhibitor, partial curve]	–
CCCCC1=CC2=CC(=O)C(C)(OC(=O)CC)C(=O)C2=CN1C1CCCC1 (stereo not drawn)	–	inconclusive: -31.7% [inhibitor]
O=C1C2=C(C(c3ccccc3)=NCCN2)C(c2cccc([N+](=O)[O-])c2)N1c1ccccc1 (stereo not drawn)	inconclusive: 33.6 µM [inhibitor, single point]	–
O=C(O)C1=CCC(c2ccc(Cl)c(Cl)c2)N(S(=O)(=O)c2ccc(F)cc2)C1c1cccc(F)c1 (stereo not drawn)	inconclusive: 23.8 µM [inhibitor, single point]	–
O=c1cc(-c2c(O)c3ccccc3n(Cc3ccccc3)c2=O)[nH][nH]1	inconclusive: 26.7 µM [inhibitor, partial curve]	–
CCNC(=O)NC(=O)C(C)Sc1nc2cc(C(=O)OC)ccc2c(=O)n1-c1ccccc1 (stereo not drawn)	–	inactive: -10.3%
COc1cccc(-n2nnnc2S(C)(=O)=O)c1	active: 7.52 µM	–
CCc1c(C)sc(NC(=O)CC#N)c1C#N	inconclusive: 21.2 µM [inhibitor, partial curve]	–
Cc1ccc([C@H]2C(C(=O)O)=CC[C@@H](c3cccc(Cl)c3)N2S(=O)(=O)c2ccc(C)cc2)cc1	inconclusive: 29.9 µM [inhibitor, single point]	–
O=C(COC(=O)CN1C(=O)NC2(CCCCC2)C1=O)Nc1cc(F)ccc1F	–	inactive: -11%
CN(C)/C=C1/Oc2c(ccc3ccccc23)C1=O	inconclusive: 29.9 µM [inhibitor, partial curve]	–
C[C@@H](C(=O)CC(=O)OC(C)(C)C)[C@@H](O)c1c(F)cccc1Cl	inconclusive: 21.2 µM [inhibitor, single point]	–
Cc1ccc(NC(=O)CN2C(=O)S/C(=C/c3ccc(-c4cc(C(=O)O)ccc4C)o3)C2=O)cc1C	inconclusive: 18.9 µM [inhibitor, partial curve]	–
CSCCC(=O)Nc1nc(-c2ccccn2)cs1	inconclusive: 13.4 µM [inhibitor, partial curve]	–
C=CCN1C(C(=O)c2ccccc2)=C(OC(=O)COc2ccccc2)c2ccccc2S1(=O)=O	inconclusive: 29.9 µM [inhibitor, partial curve]	–
CC1=NN(C(N)=S)C(=O)C1N=Nc1c(Br)cc(Br)cc1Br (stereo not drawn)	active: 23.8 µM	–
N#C/C(=C\c1ccc(OC(=O)c2ccccn2)cc1)C(N)=O	–	inactive: -9.52%
Cn1ccnc1C(=O)c1cc(SCC(=O)N2CCOCC2)nc2ccccc12	–	inactive: -16.7%

Compound	Potency	max response, negative = inhibition
O=C1CCC/C1=C/Nc1cccc(F)c1	active: 18.9 µM	–
Cc1ccc(-c2csc3ncnc(NS(=O)(=O)c4ccc(Cl)cc4)c23)cc1	inconclusive: 21.2 µM [inhibitor, single point]	–
FC(F)(F)c1ccc(/C=N/n2c(COc3ccccc3)n[nH]c2=S)cc1	active: 26.7 µM	–
CC(=O)c1ccc(NC(=S)Nc2ccc(N3CCOCC3)cc2)cc1	inconclusive: 33.6 µM [inhibitor, single point]	–
COC(=O)c1scc(C)c1NC(=O)Cc1ccccc1	–	inactive: 2.02%
Cc1ccc(NC(=O)CSc2nnc(-c3ccccn3)n2N)c(Br)c1	–	inactive: -12.6%
O=C(CCCC(=O)OCC(=O)c1cccs1)Nc1ccc(Oc2ccccc2)cc1	active: 29.9 µM	–
N#CC1=C2SCN(Cc3ccco3)CN2C(=O)CC1c1ccccc1F (stereo not drawn)	active: 26.7 µM	–
Cc1csc(C)[n+]1CC(=O)c1ccccc1	inconclusive: 26.7 µM [inhibitor, single point]	–
CCOc1ccc(C(=O)NCCc2ccc3c(c2)OCCO3)cc1	inconclusive: 21.2 µM [inhibitor, single point]	–
Cc1ccc(OCc2n[nH]c(=S)n2C2CCCCC2)cc1	inconclusive: 26.7 µM [inhibitor, partial curve]	–
O=[N+]([O-])c1cccc(C(=S)N2CCN(c3ccccc3F)CC2)c1	active: 9.47 µM	–
CCOC(=O)c1[nH]c(=O)[nH]c1CN(Cc1ccco1)Cc1[nH]c(=O)[nH]c1C(=O)OCC	–	inactive: -0.504%
COc1ccc(N2C(=O)C(Cc3ccccc3)NC2=S)cc1 (stereo not drawn)	inconclusive: 33.6 µM [inhibitor, single point]	–
Nc1ccc(S(=O)(=O)Nc2nccc(/C=C/c3ccc(Br)s3)n2)cc1	active: 9.47 µM	–
CCOc1ccc(CNn2cnnc2)cc1	active: 26.7 µM	–
Cc1cccc(C2C3=C(CCCC3=O)N=C3c4ccccc4C(=O)C32)c1 (stereo not drawn)	inconclusive: 18.9 µM [inhibitor, partial curve]	–
O=C(O)CCCCCCCCCCCNC(=O)NC12CC3CC(CC(C3)C1)C2	inconclusive: 37.7 µM [inhibitor, single point]	–
CN(C)c1ccc(C(C(=O)NCc2ccccc2)N(Cc2ccco2)C(=O)c2snc(C(N)=O)c2N)cc1 (stereo not drawn)	–	inactive: -3.15%
COc1cccc(/C=C2\SC(=S)N(C(C(=O)O)c3ccccc3)C2=O)c1OC (stereo not drawn)	inconclusive: 21.2 µM [inhibitor, partial curve]	–
CCC(C)[C@@H](NC(=O)OC(C)(C)C)c1nnc(S(=O)(=O)Cc2cccc(C)c2)o1 (stereo partly drawn)	active: 8.44 µM	–
COc1ccccc1N1CCN(Cc2cc(=O)c(OCC(=O)NC(C)C)co2)CC1	active: 9.47 µM	–
O=C(NCc1ccco1)c1cccc2c1C(=O)c1ccc(/C=C/c3ccccc3)cc1S2(=O)=O	inconclusive: 23.8 µM [inhibitor, partial curve]	–
CCOC(=O)c1ccc(-n2c(CN(CC)CC)nc3ccc([N+](=O)[O-])cc3c2=O)cc1	inconclusive: 29.9 µM [inhibitor, partial curve]	–
O=C1C2CC=CCC2C(=O)N1c1ccc(NCCc2ccc(Cl)cc2)c([N+](=O)[O-])c1 (stereo not drawn)	inconclusive: 29.9 µM [inhibitor, single point]	–

Compound	Potency	max response, negative = inhibition
CCOC(=O)c1c(S(=O)(=O)NCC(=O)Nc2cc(C)ccc2OC)c(C)n(C)c1C	–	inactive: -7.94%
COc1ccc(N2CCN(c3n[nH]c(N)n3)CC2)cc1	inconclusive: 18.9 µM [inhibitor, partial curve]	–
NC(=O)CSc1nnc(-c2ccncc2)n1-c1ccc(Cl)cc1	inconclusive: 26.7 µM [inhibitor, single point]	–
COc1cccc(CNC(=O)[C@@H]2CCCN2C(=O)[C@@H]2CCCN2C(=O)c2cccc(OC)c2)c1	–	inactive: 1.54%
CCn1c(SCC(=O)N2CCN(c3ccc(Cl)cc3)CC2)nc2ccccc2c1=O	–	inactive: 0.0048%
O=c1oc2ccccc2c(Nc2ccc(F)cc2)c1[N+](=O)[O-]	inconclusive: 29.9 µM [inhibitor, single point]	–
CC(C)CCOc1ccc(/C=C2\CCn3c2nc2cc(C(=O)O)ccc2c3=O)cc1	inconclusive: 26.7 µM [inhibitor, single point]	–
O=C(COC(=O)c1cccc([N+](=O)[O-])c1)NCc1ccc2c(c1)OCO2	inconclusive: 7.52 µM [inhibitor, single point]	–
CCC1(C)CC(C#N)(C#N)C(=O)NC1=O (stereo not drawn)	–	inactive: -2.39%
CN(c1ccc(C(=O)NCc2ccco2)cc1)S(C)(=O)=O	–	inconclusive: -30.4% [inhibitor]
Cc1[nH]c2ccccc2c1C(=O)CCl	inconclusive: 15 µM [inhibitor, partial curve]	–
COc1ccc(-n2nnnc2Sc2ccc(S(=O)(=O)N3CCOCC3)cn2)cc1	active: 15 µM and active: 9.47 µM	–
O=C1c2ccccc2C(=O)N1CCc1ccccc1	active: 26.7 µM	–
CC(C)(C)N/N=C/c1c(O)n(-c2ccc(Cl)cn2)c(=O)c2ccccc12	–	inactive: -10.9%
S=c1[nH]nc(-c2ccc(Cl)cc2Cl)n1-c1ccc2c(c1)OCCO2	active: 26.7 µM	–
CC(C)(C)C(=O)O/N=C1/C(=O)N(c2ccccc2)c2ccccc21	–	inactive: -23.3%
O=c1[nH]c2cc3c(cc2cc1CN(Cc1nnnn1CC1CCCO1)C1CCCC1)OCO3 (stereo not drawn)	–	inactive: -9.68%
CCS(=O)(=O)N1CCN(C(=O)c2cccc(OC)c2)CC1	–	inactive: -1.02%
COCCNC(=S)N1CCOCC1	–	inactive: -8.32%
O=C(CN1CCN(S(=O)(=O)c2ccccc2)CC1)Nc1cccc(C(F)(F)F)c1	inconclusive: 18.9 µM [inhibitor, partial curve]	–
O=c1[nH][nH]c(=S)n1C1CCCCC1	active: 2.99 µM	–
CC1C(=O)CCC1(C(=O)O)c1ccccc1 (stereo not drawn)	active: 23.8 µM	–
CCC(C)NC(=O)CN1C(=O)c2cccc3cccc1c23 (stereo not drawn)	–	inactive: 3.27%
